Assay results reported in the supplement of paper PMC7830784.
Structures can show the parent of a compound that is named as a salt. The list shows a part of the results. Most values lie within the scatter of the assay; repeated measurements hardly agree. Residues, ends and D or L forms follow the SMILES beside them.

test system: Brugia pahangi adult female; assay: motility inhibition on day 3 relative to DMSO vehicle; higher = more active; conditions: 10 µM; 3 days

| SMILES | motility inhibition on day 3 [%] |
| --- | --- |
| CCC1=C(C)CN(C(=O)NCCc2ccc(S(=O)(=O)NC(=O)N[C@H]3CC[C@H](C)CC3)cc2)C1=O [glimepiride] | 10.4 |
| O=C1CCc2cc(OCCCCc3nnnn3C3CCCCC3)ccc2N1 [cilostazol] | 3.27 |
| N#C[C@@H]1C[C@@H]2C[C@@H]2N1C(=O)[C@@H](N)C12CC3CC(CC(O)(C3)C1)C2 [saxagliptin] | 18 |
| CCS(=O)(=O)CCn1c([N+](=O)[O-])cnc1C [tinidazole] | 27 |
| CCCCOc1cc(C(=O)NCCN(CC)CC)c2ccccc2n1 [dibucaine hydrochloride] | 2.81 |
| CC[C@H]1OC(=O)[C@H](C)C(=O)[C@H](C)[C@@H](O[C@@H]2O[C@H](C)C[C@H](N(C)C)[C@H]2O)[C@](C)(OC)C[C@@H](C)C(=O)[C@H](C)[C@H]2N(CCCCn3cnc(-c4cccnc4)c3)C(=O)O[C@]12C [telithromycin] | 10.3 |
| O=P(O)(O)C(Cl)(Cl)P(=O)(O)O [Clodronic acid] | 10 |
| CCN1CC(CCN2CCOCC2)C(c2ccccc2)(c2ccccc2)C1=O (configuration not stated) [doxapram hydrochloride] | 3.14 |
| CC(=O)N[C@H]1[C@H]([C@H](O)[C@H](O)CO)OC(C(=O)O)=C[C@@H]1NC(=N)N [Zanamivir] | 23.4 |
| Cc1nc2n(c(=O)c1CCN1CCC(c3noc4cc(F)ccc34)CC1)CCCC2 [Risperidone] | 16.8 |
| CNCCC(Oc1ccc(C(F)(F)F)cc1)c1ccccc1 (configuration not stated) [Fluoxetine hydrochloride] | 18.5 |
| CC1CCC(C(C)C)C(O)C1 (single isomer, unassigned; (-)) [(-)-menthol] | < 0 |
| CC(=O)Nc1ccc(CC(=O)O)cc1 [actarit] | 1.65 |
| OCc1cc(C(O)CNCCCCCCOCCCCc2ccccc2)ccc1O (configuration not stated) [Salmeterol] | 0.574 |
| CC(=O)OCC(=O)[C@@]12N=C(C)O[C@@H]1C[C@H]1[C@@H]3CCC4=CC(=O)C=C[C@]4(C)[C@H]3[C@@H](O)C[C@@]12C [deflazacort] | 17.5 |
| CC(C)Nc1ncccn1 [isaxonine] | < 0 |
| CC(C)(C)NC[C@H](O)c1ccc(O)c(CO)c1 [levalbuterol hydrochloride] | 33.5 |
| CCCCCCCCCCCCC[N+](C)(C)Cc1ccccc1 [benzalkonium chloride] | 97 |
| CCn1cc(C(=O)O)c(=O)c2cnc(N3CCCC3)nc21 [piromidic acid] | < 0 |
| O=S(=O)(O)CCS [mesna] | 12.3 |
| CC(=O)[C@H]1CC[C@H]2[C@@H]3C[C@H](C)C4=CC(=O)CC[C@]4(C)[C@H]3[C@@H](O)C[C@]12C [medrysone] | 0.0336 |
| CCOC(=O)OC(C)OC1=C(C(=O)Nc2ccccn2)N(C)S(=O)(=O)c2ccccc21 (configuration not stated) [ampiroxicam] | < 0 |
| CCCCNC(=O)NS(=O)(=O)c1ccc(C)cc1 [Tolbutamide] | 12.7 |
| O=C(O)c1cc(-c2ccc(F)cc2F)ccc1O [diflunisal] | < 0 |

Quoted at random: four entries already listed, in no set order.

| SMILES | motility inhibition on day 3 [%] |
| --- | --- |
| N#C[C@@H]1C[C@@H]2C[C@@H]2N1C(=O)[C@@H](N)C12CC3CC(CC(O)(C3)C1)C2 [saxagliptin] | 18 |
| CC(C)(C)NC[C@H](O)c1ccc(O)c(CO)c1 [levalbuterol hydrochloride] | 33.5 |
| Cc1nc2n(c(=O)c1CCN1CCC(c3noc4cc(F)ccc34)CC1)CCCC2 [Risperidone] | 16.8 |
| CCN1CC(CCN2CCOCC2)C(c2ccccc2)(c2ccccc2)C1=O (configuration not stated) [doxapram hydrochloride] | 3.14 |

Further entries

| SMILES | motility inhibition on day 3 [%] |
| --- | --- |
| CCCCCCCN(CC)CCCC(O)c1ccc(NS(C)(=O)=O)cc1 (configuration not stated) [Ibutilide Fumarate] | < 0 |
| COc1ccc(-c2cc(=O)c3c(O)cc(O[C@@H]4O[C@H](CO[C@@H]5O[C@@H](C)[C@H](O)[C@@H](O)[C@H]5O)[C@@H](O)[C@H](O)[C@H]4O)cc3o2)cc1O [diosmin] | 8.35 |
| NC(=O)NC(=O)Cc1ccccc1 [phenacemide] | 25.7 |
| COc1ccc(C(=O)c2ccc(C)cc2)c(O)c1 [mexeneone] | 5.23 |
| CC1(C)[C@H]2CC[C@]1(CS(=O)(=O)O)C(=O)C2=Cc1ccc(C=C2C(=O)[C@@]3(CS(=O)(=O)O)CC[C@@H]2C3(C)C)cc1 [ecamsule triethanolamine] | 15.9 |
| OC[C@@H](O)[C@@H](O[C@@H]1O[C@H](CO)[C@H](O)[C@H](O)[C@H]1O)[C@H](O)[C@@H](O)CO [d-lactitol monohydrate] | < 0 |
| OC[C@@H](O)[C@@H](O[C@@H]1O[C@H](CO)[C@H](O)[C@H](O)[C@H]1O)[C@H](O)[C@@H](O)CO [lacitol] | 42.3 |
| c1ccc2[nH]c(-c3cscn3)nc2c1 [thiabendazole] | < 0 |
| CN1[C@@H](CC(=O)c2ccccc2)CCC[C@H]1C[C@H](O)c1ccccc1 [lobeline hydrochloride] | 2.36 |
| CN(C)[C@@H]1C(O)=C(C(N)=O)C(=O)[C@@]2(O)C(O)=C3C(=O)c4c(O)ccc(Cl)c4[C@@](C)(O)[C@H]3C[C@@H]12 [chlortetracycline] | 1.14 |
| O=C1OC2(c3ccc(O)cc3Oc3cc(O)ccc32)c2ccccc21 [fluorescein] | < 0 |
| CC(=O)OCC1=C(C(=O)O)N2C(=O)[C@@H](NC(=O)CSc3ccncc3)[C@H]2SC1 [cephapirin sodium] | 6.04 |
| C[C@]12CC[C@@H]3c4ccc(O)cc4CC[C@H]3[C@@H]1CCC2=O [estrone] | 24.2 |
| CC(C)[C@H](NC(=O)[C@H](CC(=O)O)NC(=O)[C@H](CCCCN)NC(=O)[C@@H](N)CCCN=C(N)N)C(=O)N[C@@H](Cc1ccc(O)cc1)C(=O)O [thymopentin] (H-RKDVY-OH) | < 0 |
| CCOC(=O)C1=C[C@]2(CC)CCCN3CCc4c(n1c1ccccc41)[C@@H]32 [vinpocetine] | 11 |
| COc1ccccc1O [guaiacol] | 1.69 |
| O=NN(CCCl)C(=O)NC1CCCCC1 [lomustine] | 30.3 |
| O=C(O)CCC(=O)Nc1ccc(S(=O)(=O)Nc2nccs2)cc1 [succinylsulfathiazole] | 42.9 |
| COc1cnc(NS(=O)(=O)c2ccc(N)cc2)nc1 [sulfameter] | 10 |
| Cc1cccc(CN2CCN(C(c3ccccc3)c3ccc(Cl)cc3)CC2)c1 (configuration not stated) [meclizine hydrochloride] | 21.4 |
| CC(C)COC(=O)c1ccc(N)cc1 [isobutamben] | 8.61 |
| Cc1cc(-n2c(=O)[nH]c(=O)n(C)c2=O)ccc1Oc1ccc(SC(F)(F)F)cc1 [toltrazuril] | 4.45 |
| Cc1ccccc1N1C(=O)c2cc(S(N)(=O)=O)c(Cl)cc2NC1C (configuration not stated) [metolazone] | 6.8 |
| OCCOCCN1CCN(C(c2ccccc2)c2ccc(Cl)cc2)CC1 (configuration not stated) [hydroxyzine pamoate] | 42.8 |

| SMILES | motility inhibition on day 3 [%] |
| --- | --- |
| O=S(=O)(O)CCCS(=O)(=O)O [eprodisate disodium] | < 0 |
| CC(=O)Nc1ccc(O)cc1 [acetaminophen] | 1.69 |
| CC(=O)Oc1c(C)c(C)c2c(c1C)CCC(C)(CCCC(C)CCCC(C)CCCC(C)C)O2 (stereo not drawn) [alpha-tochopheryl acetate] | 5.83 |
| NCCCC(N)C(=O)O (configuration not stated) [ornithine aketoglutarate] | < 0 |
| CCCCC(CC)CN=C(N)N=C(N)NCCCCCCNC(N)=NC(N)=NCC(CC)CCCC (configuration not stated) [alexidine hydrochloride] | 92.8 |
| COc1ccc2[nH]c([S+]([O-])Cc3ncc(C)c(OC)c3C)nc2c1 (configuration not stated) [omeprazole] | 10.2 |
| C[C@]12CC[C@@H]3c4ccc(O)cc4CC[C@H]3[C@@H]1C[C@H](O)[C@@H]2O [epiestriol] | < 0 |
| Cn1nnnc1SCC1=C(C(=O)O)N2C(=O)[C@@H](NC(=O)[C@H](OC=O)c3ccccc3)[C@H]2SC1 [cefamandole nafate] | 19.9 |
| CO/N=C(\C(=O)N[C@@H]1C(=O)N2C(C(=O)O)=C(C[N+]3(C)CCCC3)CS[C@H]12)c1csc(N)n1 [cefepime hydrochloride] | < 0 |
| CCOC(=O)[C@H](CCc1ccccc1)N[C@@H](C)C(=O)N1CCC[C@H]1C(=O)O [enalapril maleate] | 6.87 |
| CCc1cccc2c3c([nH]c12)C(CC)(CC(=O)O)OCC3 (configuration not stated) [etodolac] | 5.82 |
| Cc1noc(NS(=O)(=O)c2ccc(N)cc2)c1C [sulfisoxazole] | < 0 |
| CCCCC(=O)O[C@]1(C(=O)CO)CC[C@H]2[C@@H]3CCC4=CC(=O)CC[C@]4(C)[C@H]3[C@@H](O)C[C@@]21C [hydrocortisone valerate] | 53.3 |
| C[C@]12CC[C@@H]3c4ccc(O)cc4CC[C@H]3[C@@H]1C[C@@H](O)[C@@H]2O [estriol] | 42.8 |
| CC(Oc1c(Cl)cccc1Cl)C1=NCCN1 (configuration not stated) [lofexidine  hydrochloride] | 0.193 |
| CC1=C(CC(=O)O)c2cc(F)ccc2/C1=C\c1ccc([S+](C)[O-])cc1 (configuration not stated) [Sulindac] | < 0 |
| Cn1c([N+](=O)[O-])cnc1COC(N)=O [ronidazole] | 4.78 |
| NC(N)=O [urea] | 13.8 |
| CN(C)[C@@H]1C(O)=C(C(N)=O)C(=O)[C@@]2(O)C(O)=C3C(=O)c4c(O)ccc(Cl)c4[C@@H](O)[C@H]3C[C@@H]12 [demeclocycline hydrochloride] | 15.3 |
| NC(C(=O)O)C(O)c1ccc(O)c(O)c1 (racemic) [H-DL-beta-(3,4-Dihydroxyphenyl)-DL-Ser-OH] | < 0 |
| OC[C@H]1O[C@@H](O[C@@H]2[C@@H](CO)OC(O)(CO)[C@H]2O)[C@H](O)[C@@H](O)[C@H]1O (mixture of isomers) [lactulose] | 48.9 |
| COc1ccc(-c2cc(C(F)F)nn2-c2ccc(S(N)(=O)=O)cc2)cc1F [deracoxib] | 1.48 |
| CC(Oc1ccccc1)C(=O)N[C@@H]1C(=O)N2[C@@H]1SC(C)(C)[C@@H]2C(=O)O (some centres not stated) [phenethicillin potassium] | 32 |
| CC[C@@H]1/C=C(\C)C[C@H](C)C[C@H](OC)[C@H]2O[C@@](O)(C(=O)C(=O)N3CCCC[C@H]3C(=O)O[C@H](/C(C)=C/[C@@H]3CC[C@H](Cl)[C@H](OC)C3)[C@H](C)[C@@H](O)CC1=O)[C@H](C)C[C@@H]2OC [Pimecrolimus] | 0.554 |
